# PMC7819943, “Rice protein-binding microarrays: a tool to detect cis-acting elements near promoter regions in rice”
# Sequences of proteins named here, by UniProt entry; tags and fusion partners are left off.
# UniProt Q0JBA9, entry or part of it: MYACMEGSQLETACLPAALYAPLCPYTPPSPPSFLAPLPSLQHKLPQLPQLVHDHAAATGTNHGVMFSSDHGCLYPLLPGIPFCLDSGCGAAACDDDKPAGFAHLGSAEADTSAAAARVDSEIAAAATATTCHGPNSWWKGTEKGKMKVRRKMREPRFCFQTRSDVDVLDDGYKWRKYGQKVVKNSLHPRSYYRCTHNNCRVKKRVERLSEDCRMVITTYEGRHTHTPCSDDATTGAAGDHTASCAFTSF
# The list shows a part of the results.
# Target: OsWRKY34 (Oryza sativa, UniProt Q0JBA9 1-250)
# Assay: protein-binding microarray (RPBM); PBS, 2% BSA, 51.3 ng/ul salmon testes DNA, 50 uM zinc acetate, 200 nM TF, 25 C, 1 h; high values mean tight binding
# Details: protein: recombinant; tags: N-terminal polyhistidine and DsRed monomer fusion (pET32a); label: CyDye5-dUTP incorporated in the synthesized complementary strand; 3' TTTTT single-stranded linker to array surface; dsDNA, one strand shown
# How it was run: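 Transcription factors were made in E. coli BL21-CodonPlus as N-terminal fusions to a polyhistidine tag and DsRed, then purified on Ni–NTA. After primer extension with Cy5-dUTP and blocking with 2% BSA, a custom Agilent array was exposed for 1 h at 25 °C to 200 nM protein in PBS, 2% BSA, salmon testes DNA and 50 µM zinc acetate. Washed arrays were scanned on an Axon 4000B, and the binding signal is per-feature fluorescence intensity in arbitrary units.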
row,Sequence,binding signal
1,CCAATGTTCTTCTGTGCACTATCCTCACGTAATATACACCCGGAGTCACCTAGTGCAG,14600 fluorescence intensity (a.u.)
2,ATTTCTCATGTAATCTCATTTTTCGTTCCAAGTCTTATCTCGGAGTCACCTAGTGCAG,10900 fluorescence intensity (a.u.)
3,GTCTAACCGAAAAGGCACCGGACGTCACACATTCATCCACCGGAGTCACCTAGTGCAG,8220 fluorescence intensity (a.u.)
4,GATTCTTTCTTCCTTTCTGGTGTAGTGCCTTCCTTTAAATCGGAGTCACCTAGTGCAG,10200 fluorescence intensity (a.u.)
5,CTCCATCCGTTTCACAATGTAAGTCATTCTAGCATTTCACCGGAGTCACCTAGTGCAG,8500 fluorescence intensity (a.u.)
6,ATCTCACCAGCCAATTCATCCATCCATCCAAGCTCCTCGTCGGAGTCACCTAGTGCAG,9770 fluorescence intensity (a.u.)
7,TCGTCACCGTGTTTCTGCTGTGTTGCTTGCTAATTGCTATCGGAGTCACCTAGTGCAG,8280 fluorescence intensity (a.u.)
8,ATCGATTTGGAGCATAGTTTATTTTCATTATAGTGTTTTCCGGAGTCACCTAGTGCAG,9230 fluorescence intensity (a.u.)
9,GGTCACCCCGACGGCGAGCATCCTCACCTACGGCGCCCGCCGGAGTCACCTAGTGCAG,8260 fluorescence intensity (a.u.)
10,AAGGTCATAGCAGTGGGTTTCTCCTCTATTAGTTTTAATCCGGAGTCACCTAGTGCAG,9900 fluorescence intensity (a.u.)
11,CACCCGCCACGCCTCCGCCTCCGCCTCCGCACTGCATTCCCGGAGTCACCTAGTGCAG,12700 fluorescence intensity (a.u.)
12,CGATCCTTTTTTTTCTCACTCTTTTTTAACTTCGGACCTTCGGAGTCACCTAGTGCAG,9640 fluorescence intensity (a.u.)
13,TGTCACAGGTTGTGAAGGTCCTGGAAGGCGCGATCGACACCGGAGTCACCTAGTGCAG,8690 fluorescence intensity (a.u.)
14,TCCTCCAATTCCCTCAACGAAATCTCTCTCTCGATCCGACCGGAGTCACCTAGTGCAG,8670 fluorescence intensity (a.u.)
15,TATTGGGTGCTTTTGTCCTCAGGTGTGGTATATAGGTACCCGGAGTCACCTAGTGCAG,8060 fluorescence intensity (a.u.)
16,GCGCTTTGCTCGGGTAGAGTAATCTTCTGGTTCAGATCGCCGGAGTCACCTAGTGCAG,8400 fluorescence intensity (a.u.)
17,TTACAGCGTCGATCCTCATATGTGAGTTGTGTATTCTTTCCGGAGTCACCTAGTGCAG,11500 fluorescence intensity (a.u.)
18,TTACTTTACAAATTTCTCGTATGCATTTACCTGGTCTTTTCGGAGTCACCTAGTGCAG,10700 fluorescence intensity (a.u.)
19,TGCATGTACGATACTGGAGCTGATCCTCGCCATCATATCCCGGAGTCACCTAGTGCAG,9150 fluorescence intensity (a.u.)
20,GTGCTGGTTGCTTGTGTCGAGACCGGAGAGTATTACTCATCGGAGTCACCTAGTGCAG,9060 fluorescence intensity (a.u.)
21,GCACACGCTTCATGTTGACATTTTATCGAATCGTGTTCTGCGGAGTCACCTAGTGCAG,8350 fluorescence intensity (a.u.)

# Single entries from above.
# In binding signal, TGCATGTACGATACTGGAGCTGATCCTCGCCATCATATCCCGGAGTCACCTAGTGCAG reads 9150 fluorescence intensity (a.u.)
# In binding signal, TATTGGGTGCTTTTGTCCTCAGGTGTGGTATATAGGTACCCGGAGTCACCTAGTGCAG reads 8060 fluorescence intensity (a.u.)
# In binding signal, TGTCACAGGTTGTGAAGGTCCTGGAAGGCGCGATCGACACCGGAGTCACCTAGTGCAG reads 8690 fluorescence intensity (a.u.)
# In binding signal, ATTTCTCATGTAATCTCATTTTTCGTTCCAAGTCTTATCTCGGAGTCACCTAGTGCAG reads 10900 fluorescence intensity (a.u.)

# Additional results:

row,Sequence,binding signal
1,GATAGATATTTAACCATTTTCACTTTTATATGTTACGTTTCGGAGTCACCTAGTGCAG,8740 fluorescence intensity (a.u.)
2,CCGCTCCACGCGCGCGCCGCCGAGTAGGCTTATGAACTAACGGAGTCACCTAGTGCAG,8200 fluorescence intensity (a.u.)
3,ATCAACGATTGCTAGATAGCCAAAGCTCTTTTGTTGTTTCCGGAGTCACCTAGTGCAG,9470 fluorescence intensity (a.u.)
4,CGCCGCCGAACGCCGCCGCTGCCGCCGCCGCCTCTCTCCGCGGAGTCACCTAGTGCAG,8380 fluorescence intensity (a.u.)
5,CTCACGCTGTGGACATGTCGGACTCCTGGACGCCGGCCGGCGGAGTCACCTAGTGCAG,8160 fluorescence intensity (a.u.)
6,TGGACCAAATGGCACCCGCTACCTTCTTGGCTTGACGTTACGGAGTCACCTAGTGCAG,8170 fluorescence intensity (a.u.)
7,CACTCGATTGCGCACGAATTAGTCTACTACTCCTTAGGTTCGGAGTCACCTAGTGCAG,8460 fluorescence intensity (a.u.)
8,TCTTTTTACGTGCCTTTTATCTCTCCCTTCACATAAGCACCGGAGTCACCTAGTGCAG,8350 fluorescence intensity (a.u.)
9,TCACTGCCACCACCACTATTTTCTTTGAAGTAGTACAGACCGGAGTCACCTAGTGCAG,8580 fluorescence intensity (a.u.)
10,ATAATCATTTCTATGTTTTTTTTCTAAATGTGCGTATTGACGGAGTCACCTAGTGCAG,8150 fluorescence intensity (a.u.)
11,CATATACTCCCTCCGTTTTTTAATAGATGACGCCGTTGACCGGAGTCACCTAGTGCAG,12300 fluorescence intensity (a.u.)
12,CTCTTCATCCAGCTCACTGCATAATCACACACTAATTAACCGGAGTCACCTAGTGCAG,9380 fluorescence intensity (a.u.)
13,TTCACATTGACTCCCTTAACTACTGATGCGAATCAGATTCCGGAGTCACCTAGTGCAG,8270 fluorescence intensity (a.u.)
14,TTGCTTTGCCATGTTTCTTCTACTTTCCCCAAAACACCGTCGGAGTCACCTAGTGCAG,8330 fluorescence intensity (a.u.)
15,GTACTCTGTCACTGCTTTTTCTTGTAGTGAATTCCCACTTCGGAGTCACCTAGTGCAG,8480 fluorescence intensity (a.u.)
16,TCGTCGCACTCACTGCCGCCGTGCCGCTTGCGTCGCGCTCCGGAGTCACCTAGTGCAG,8360 fluorescence intensity (a.u.)
17,GCCTATTAGCCCCACCCACTTAGTTGTATGGAGTTTTGTTCGGAGTCACCTAGTGCAG,9160 fluorescence intensity (a.u.)
18,CATGCCATCTCCAAAAGTCCACTCCTCGCCTTCGTTTCTCCGGAGTCACCTAGTGCAG,11900 fluorescence intensity (a.u.)
19,CGTCCAGTCCGCTCCCTCCCTCATTCATTCGGTTCGGTAACGGAGTCACCTAGTGCAG,8870 fluorescence intensity (a.u.)
20,TTATTATCTACAGTACTTTAATCACAACTTTTCGTTTTTTCGGAGTCACCTAGTGCAG,8940 fluorescence intensity (a.u.)
21,CTTTTCTCTGACCTTTTCTTCTCTAGACCTTGAAACAACACGGAGTCACCTAGTGCAG,9460 fluorescence intensity (a.u.)
